Experimental data: PubChem BioAssay AID720705 (Peter MacCallum Cancer Centre, 2013)
Screen: 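Kinases whose loss changes AT1R-driven EGFR activation, checked with four siRNAs each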 (follow-up of hits). System: human HMEC-LST-AT1R mammary epithelial cells. Reagent: single siRNA against human genes, 25 nM per duplex. Time to read-out: 72 h after transfection. Challenge: angiotensin II stimulation; dose and duration not given. Measurement: 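Signed fold change in phospho-ERK1/2 (AlphaScreen SureFire bead assay) after angiotensin II, relative to the average of mock and GFP siRNA controls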. Reading the numbers: duplexes agreeing on an effect (of 4): higher = more duplexes of this gene agree on an effect; signed phospho-ERK fold change vs controls: higher = more ERK phosphorylation than controls; negative values are decreases. Call rule: 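Gene called active when two or more of its four siRNAs each shift ERK phosphorylation beyond 1.5-fold the same way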. Meaning of the calls: active = high/medium confidence (2-4 of 4 duplexes); inactive = low confidence (0-1 of 4 duplexes).
In all, the deposit lists 200 reagents; this is a random part of them. Of all reagents, 116 (58%) were called active. 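Negative fold changes mean less ERK phosphorylation; hits count in both directions; calls are per gene.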 The numbers tell different reagents against one gene apart.

DLG1 #1 — duplexes agreeing on an effect (of 4) = 1; signed phospho-ERK fold change vs controls = -2.2; outcome = inactive
DLG1 #2 — duplexes agreeing on an effect (of 4) = 1; signed phospho-ERK fold change vs controls = -1.27; outcome = inactive
DLG1 #3 — duplexes agreeing on an effect (of 4) = 1; signed phospho-ERK fold change vs controls = 1.23; outcome = inactive
DLG1 #4 — duplexes agreeing on an effect (of 4) = 1; signed phospho-ERK fold change vs controls = 1.28; outcome = inactive
RPS6KA4 #1 — duplexes agreeing on an effect (of 4) = 1; signed phospho-ERK fold change vs controls = -1.09; outcome = inactive
RPS6KA4 #2 — duplexes agreeing on an effect (of 4) = 1; signed phospho-ERK fold change vs controls = 1.21; outcome = inactive
RPS6KA4 #3 — duplexes agreeing on an effect (of 4) = 1; signed phospho-ERK fold change vs controls = -2.66; outcome = inactive
RPS6KA4 #4 — duplexes agreeing on an effect (of 4) = 1; signed phospho-ERK fold change vs controls = 1.25; outcome = inactive
TAOK3 #1 — duplexes agreeing on an effect (of 4) = 1; signed phospho-ERK fold change vs controls = 1.3; outcome = inactive
TAOK3 #2 — duplexes agreeing on an effect (of 4) = 1; signed phospho-ERK fold change vs controls = -1.11; outcome = inactive
TAOK3 #3 — duplexes agreeing on an effect (of 4) = 1; signed phospho-ERK fold change vs controls = 0.042; outcome = inactive
TAOK3 #4 — duplexes agreeing on an effect (of 4) = 1; signed phospho-ERK fold change vs controls = -1.52; outcome = inactive
FES #1 — duplexes agreeing on an effect (of 4) = 3; signed phospho-ERK fold change vs controls = -2.62; outcome = active
FES #2 — duplexes agreeing on an effect (of 4) = 3; signed phospho-ERK fold change vs controls = 1.2; outcome = active
FES #3 — duplexes agreeing on an effect (of 4) = 3; signed phospho-ERK fold change vs controls = -2.23; outcome = active
FES #4 — duplexes agreeing on an effect (of 4) = 3; signed phospho-ERK fold change vs controls = -2.51; outcome = active
CALM1 #1 — duplexes agreeing on an effect (of 4) = 2; signed phospho-ERK fold change vs controls = -2.34; outcome = active
CALM1 #2 — duplexes agreeing on an effect (of 4) = 2; signed phospho-ERK fold change vs controls = -0.002; outcome = active
CALM1 #3 — duplexes agreeing on an effect (of 4) = 2; signed phospho-ERK fold change vs controls = -2.46; outcome = active
CALM1 #4 — duplexes agreeing on an effect (of 4) = 2; signed phospho-ERK fold change vs controls = -1.8; outcome = active
PIKFYVE #1 — duplexes agreeing on an effect (of 4) = 2; signed phospho-ERK fold change vs controls = 1.42; outcome = active
PIKFYVE #2 — duplexes agreeing on an effect (of 4) = 2; signed phospho-ERK fold change vs controls = -0.019; outcome = active
PIKFYVE #3 — duplexes agreeing on an effect (of 4) = 2; signed phospho-ERK fold change vs controls = -1.56; outcome = active
PIKFYVE #4 — duplexes agreeing on an effect (of 4) = 2; signed phospho-ERK fold change vs controls = -1.63; outcome = active
DGKH #1 — duplexes agreeing on an effect (of 4) = 2; signed phospho-ERK fold change vs controls = -1.59; outcome = active
DGKH #2 — duplexes agreeing on an effect (of 4) = 2; signed phospho-ERK fold change vs controls = -0.085; outcome = active
DGKH #3 — duplexes agreeing on an effect (of 4) = 2; signed phospho-ERK fold change vs controls = -1.31; outcome = active
DGKH #4 — duplexes agreeing on an effect (of 4) = 2; signed phospho-ERK fold change vs controls = -2.68; outcome = active
PSKH2 #1 — duplexes agreeing on an effect (of 4) = 2; signed phospho-ERK fold change vs controls = -1.73; outcome = active
PSKH2 #2 — duplexes agreeing on an effect (of 4) = 2; signed phospho-ERK fold change vs controls = 1.58; outcome = active
PSKH2 #3 — duplexes agreeing on an effect (of 4) = 2; signed phospho-ERK fold change vs controls = -2.12; outcome = active
PSKH2 #4 — duplexes agreeing on an effect (of 4) = 2; signed phospho-ERK fold change vs controls = -1.04; outcome = active
BMPR1A #1 — duplexes agreeing on an effect (of 4) = 1; signed phospho-ERK fold change vs controls = -1.37; outcome = inactive
BMPR1A #2 — duplexes agreeing on an effect (of 4) = 1; signed phospho-ERK fold change vs controls = -1.23; outcome = inactive
BMPR1A #3 — duplexes agreeing on an effect (of 4) = 1; signed phospho-ERK fold change vs controls = -1.49; outcome = inactive
BMPR1A #4 — duplexes agreeing on an effect (of 4) = 1; signed phospho-ERK fold change vs controls = -1.76; outcome = inactive
CDK5R1 #1 — duplexes agreeing on an effect (of 4) = 1; signed phospho-ERK fold change vs controls = 1.77; outcome = inactive
CDK5R1 #2 — duplexes agreeing on an effect (of 4) = 1; signed phospho-ERK fold change vs controls = 1.39; outcome = inactive
CDK5R1 #3 — duplexes agreeing on an effect (of 4) = 1; signed phospho-ERK fold change vs controls = -1.94; outcome = inactive
CDK5R1 #4 — duplexes agreeing on an effect (of 4) = 1; signed phospho-ERK fold change vs controls = -1.35; outcome = inactive

A few values from the entries so far.
For “duplexes agreeing on an effect (of 4)”, PSKH2 #2 reads 2
Entry of CDK5R1 #1 in “signed phospho-ERK fold change vs controls”: 1.77
Under “duplexes agreeing on an effect (of 4)”, RPS6KA4 #4 is entered as 1
